Measured values from the supplement of paper PMC7661543.
Differences between knockout arms are mostly noise.

System: SKBR3
Assay: relative cell number vs DMSO control (72 h) (% of DMSO); higher = less growth inhibition (more cells)
Procedure: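 QMAP-Seq: a pool of 5 breast cancer cell lines (ZR-75-1, SKBR3, HCC-38, MDA-MB-231, BT-20), each carrying 12 doxycycline-inducible Cas9 sgRNA perturbations (11 knockouts plus non-targeting sgNT), was treated with compounds for 72 h at four 10-fold doses (10 nM-10 uM or 1 nM-1 uM range). Barcodes were amplified and sequenced, and cell number was interpolated from 293T spike-in standard curves. The result is expressed as % of the median of DMSO wells. Two biological replicates.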

Nc1ncn([C@H]2C[C@H](O)[C@@H](CO)O2)c(=O)n1 [Decitabine]
Settings | relative cell number
sgRNA knockout: sgATF3, 10 nM | 132
sgRNA knockout: sgATF3, 100 nM | 103
sgRNA knockout: sgATF3, 1000 nM | 56
sgRNA knockout: sgATF3, 10000 nM | 34.4
sgRNA knockout: sgATF4, 10 nM | 95
sgRNA knockout: sgATF4, 100 nM | 100
sgRNA knockout: sgATF4, 1000 nM | 65.5
sgRNA knockout: sgATF4, 10000 nM | 34.9
sgRNA knockout: sgATF6, 10 nM | 108.7
sgRNA knockout: sgATF6, 100 nM | 88.2
sgRNA knockout: sgATF6, 1000 nM | 57.4
sgRNA knockout: sgATF6, 10000 nM | 36
sgRNA knockout: sgATG7, 10 nM | 86.6
sgRNA knockout: sgATG7, 100 nM | 93.5
sgRNA knockout: sgATG7, 1000 nM | 53.9
sgRNA knockout: sgATG7, 10000 nM | 33.2
sgRNA knockout: sgERN1, 10 nM | 83
sgRNA knockout: sgERN1, 100 nM | 99.2
sgRNA knockout: sgERN1, 1000 nM | 66.6
sgRNA knockout: sgERN1, 10000 nM | 37.6
sgRNA knockout: sgHSF1, 10 nM | 116
sgRNA knockout: sgHSF1, 100 nM | 91.4
sgRNA knockout: sgHSF1, 1000 nM | 53.6
sgRNA knockout: sgHSF1, 10000 nM | 37.9
sgRNA knockout: sgHSF2, 10 nM | 72.5
sgRNA knockout: sgHSF2, 100 nM | 76.2
sgRNA knockout: sgHSF2, 1000 nM | 58.9
sgRNA knockout: sgHSF2, 10000 nM | 35.1
sgRNA knockout: sgKEAP1, 10 nM | 94.4
sgRNA knockout: sgKEAP1, 100 nM | 94.3
sgRNA knockout: sgKEAP1, 1000 nM | 52.1
sgRNA knockout: sgKEAP1, 10000 nM | 36
sgRNA knockout: sgNFE2L2, 10 nM | 99.7
sgRNA knockout: sgNFE2L2, 100 nM | 90.4
sgRNA knockout: sgNFE2L2, 1000 nM | 48.5
sgRNA knockout: sgNFE2L2, 10000 nM | 42.1
sgRNA knockout: sgSLC35F2, 10 nM | 102
sgRNA knockout: sgSLC35F2, 100 nM | 86.3
sgRNA knockout: sgSLC35F2, 1000 nM | 56
sgRNA knockout: sgSLC35F2, 10000 nM | 35.6
sgRNA knockout: sgXBP1, 10 nM | 101
sgRNA knockout: sgXBP1, 100 nM | 95.6
sgRNA knockout: sgXBP1, 1000 nM | 51.3
sgRNA knockout: sgXBP1, 10000 nM | 29

C=CCc1cccc(/C=N/NC(=O)CN2CCN(Cc3ccccc3)CC2)c1O [PAC1]
Settings | relative cell number
sgRNA knockout: sgATF3, 10 nM | 115
sgRNA knockout: sgATF3, 100 nM | 63.5
sgRNA knockout: sgATF3, 1000 nM | 88.2
sgRNA knockout: sgATF3, 10000 nM | 44.5
sgRNA knockout: sgATF4, 10 nM | 105
sgRNA knockout: sgATF4, 100 nM | 78.4
sgRNA knockout: sgATF4, 1000 nM | 71.8
sgRNA knockout: sgATF4, 10000 nM | 32.7
sgRNA knockout: sgATF6, 10 nM | 91
sgRNA knockout: sgATF6, 100 nM | 84.4
sgRNA knockout: sgATF6, 1000 nM | 96.7
sgRNA knockout: sgATF6, 10000 nM | 44.1
sgRNA knockout: sgATG7, 10 nM | 70.9
sgRNA knockout: sgATG7, 100 nM | 84.2
sgRNA knockout: sgATG7, 1000 nM | 89.7
sgRNA knockout: sgATG7, 10000 nM | 49.1
sgRNA knockout: sgERN1, 10 nM | 127
sgRNA knockout: sgERN1, 100 nM | 91.4
sgRNA knockout: sgERN1, 1000 nM | 91.1
sgRNA knockout: sgERN1, 10000 nM | 42.2
sgRNA knockout: sgHSF1, 10 nM | 85.4
sgRNA knockout: sgHSF1, 100 nM | 76
sgRNA knockout: sgHSF1, 1000 nM | 81.3
sgRNA knockout: sgHSF1, 10000 nM | 34.52
sgRNA knockout: sgHSF2, 10 nM | 107
sgRNA knockout: sgHSF2, 100 nM | 71.9
sgRNA knockout: sgHSF2, 1000 nM | 82.9
sgRNA knockout: sgHSF2, 10000 nM | 41.6
sgRNA knockout: sgKEAP1, 10 nM | 96
sgRNA knockout: sgKEAP1, 100 nM | 69.9
sgRNA knockout: sgKEAP1, 1000 nM | 71.4
sgRNA knockout: sgKEAP1, 10000 nM | 39.6
sgRNA knockout: sgNFE2L2, 10 nM | 95.5
sgRNA knockout: sgNFE2L2, 100 nM | 82.7
sgRNA knockout: sgNFE2L2, 1000 nM | 83.1
sgRNA knockout: sgNFE2L2, 10000 nM | 37.8
sgRNA knockout: sgSLC35F2, 10 nM | 98.8
sgRNA knockout: sgSLC35F2, 100 nM | 67.4
sgRNA knockout: sgSLC35F2, 1000 nM | 101
sgRNA knockout: sgSLC35F2, 10000 nM | 38.7
sgRNA knockout: sgXBP1, 10 nM | 115
sgRNA knockout: sgXBP1, 100 nM | 82.9
sgRNA knockout: sgXBP1, 1000 nM | 73.5
sgRNA knockout: sgXBP1, 10000 nM | 34.1

Clc1ccc(C2(c3ccc(-c4cn[nH]c4)cc3)CCNCC2)cc1 [AT7867]
Settings | relative cell number
sgRNA knockout: sgATF3, 10 nM | 94.7
sgRNA knockout: sgATF3, 100 nM | 89.6
sgRNA knockout: sgATF3, 1000 nM | 58
sgRNA knockout: sgATF3, 10000 nM | 16.5
sgRNA knockout: sgATF4, 10 nM | 95.3
sgRNA knockout: sgATF4, 100 nM | 105
sgRNA knockout: sgATF4, 1000 nM | 75.8
sgRNA knockout: sgATF4, 10000 nM | 11.6
sgRNA knockout: sgATF6, 10 nM | 78.5
sgRNA knockout: sgATF6, 100 nM | 82.4
sgRNA knockout: sgATF6, 1000 nM | 62.9
sgRNA knockout: sgATF6, 10000 nM | 9.27
sgRNA knockout: sgATG7, 10 nM | 109
sgRNA knockout: sgATG7, 100 nM | 77
sgRNA knockout: sgATG7, 1000 nM | 62.2
sgRNA knockout: sgATG7, 10000 nM | 11.9
sgRNA knockout: sgERN1, 10 nM | 84.7
sgRNA knockout: sgERN1, 100 nM | 127
sgRNA knockout: sgERN1, 1000 nM | 72.8
sgRNA knockout: sgERN1, 10000 nM | 15.2
sgRNA knockout: sgHSF1, 10 nM | 94.8
sgRNA knockout: sgHSF1, 100 nM | 81.1
sgRNA knockout: sgHSF1, 1000 nM | 52.8
sgRNA knockout: sgHSF1, 10000 nM | 12.1
sgRNA knockout: sgHSF2, 10 nM | 106
sgRNA knockout: sgHSF2, 100 nM | 88.2
sgRNA knockout: sgHSF2, 1000 nM | 74.8
sgRNA knockout: sgHSF2, 10000 nM | 12.2
sgRNA knockout: sgKEAP1, 10 nM | 86.4
sgRNA knockout: sgKEAP1, 100 nM | 80.9
sgRNA knockout: sgKEAP1, 1000 nM | 78.4
sgRNA knockout: sgKEAP1, 10000 nM | 11
sgRNA knockout: sgNFE2L2, 10 nM | 100
sgRNA knockout: sgNFE2L2, 100 nM | 85.08
sgRNA knockout: sgNFE2L2, 1000 nM | 73.5
sgRNA knockout: sgNFE2L2, 10000 nM | 11.5
sgRNA knockout: sgSLC35F2, 10 nM | 101.7
sgRNA knockout: sgSLC35F2, 100 nM | 84.3
sgRNA knockout: sgSLC35F2, 1000 nM | 80.2
sgRNA knockout: sgSLC35F2, 10000 nM | 12.3
sgRNA knockout: sgXBP1, 10 nM | 95.8
sgRNA knockout: sgXBP1, 100 nM | 108
sgRNA knockout: sgXBP1, 1000 nM | 63
sgRNA knockout: sgXBP1, 10000 nM | 15.8
